About 1,500 (0.58%) of roughly 260,000 compounds were called active. Inconclusive results, whose numbers are uncertain, are shown with a selection of clear calls.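 How the source made its calls: active means inhibition above a set limit at one or more doses, reproduced on every date tested; inconclusive means results disagree between test dates, or hit never tested in dose response; inactive means the rest.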
These compounds were tested against Virion infectivity factor (Human immunodeficiency virus type 1 group M subtype B (isolate BH10)) + Virion infectivity factor (Human immunodeficiency virus type 1 group M subtype B (isolate BRU/LAI)) + Virion infectivity factor (Human immunodeficiency virus type 1 group M subtype B (isolate PCV12)) + Virion infectivity factor (Human immunodeficiency virus type 1 group M subtype B (isolate HXB2)) + DNA dC->dU-editing enzyme APOBEC-3G (Homo sapiens) (UniProt P69720+P69721+P69722+P69723+Q9HC16) (assay: inhibitors of Vif binding to APOBEC3G peptide, primary screen, biochemical, TR-FRET, GST-Vif 1-94, biotin-A3G peptide, dose response retest (AID 1117319;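 further: Vif residues 1-94 fused to GST binding biotinylated APOBEC3G peptide 110-148; 0% = full assay without inhibitor and 100% = GST in place of GST-Vif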)). Settings: hits give high values.

By UniProt entry, the sequences of proteins in these tests, tags left out. Where a name states a change or a piece, a line headed by the entry shows the natural chain unless it says otherwise.
UniProt P69720: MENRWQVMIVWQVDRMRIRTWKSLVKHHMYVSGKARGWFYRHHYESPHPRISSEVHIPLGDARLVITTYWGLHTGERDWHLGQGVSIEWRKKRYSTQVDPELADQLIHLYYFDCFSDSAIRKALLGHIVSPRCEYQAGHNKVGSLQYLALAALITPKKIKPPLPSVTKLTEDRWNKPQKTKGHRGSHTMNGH
UniProt P69721: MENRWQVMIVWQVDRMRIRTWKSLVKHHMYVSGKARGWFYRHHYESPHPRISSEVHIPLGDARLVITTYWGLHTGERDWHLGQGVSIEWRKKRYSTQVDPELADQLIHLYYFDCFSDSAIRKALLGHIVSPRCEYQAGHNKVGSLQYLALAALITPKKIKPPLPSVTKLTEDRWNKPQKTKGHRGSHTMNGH
UniProt P69722: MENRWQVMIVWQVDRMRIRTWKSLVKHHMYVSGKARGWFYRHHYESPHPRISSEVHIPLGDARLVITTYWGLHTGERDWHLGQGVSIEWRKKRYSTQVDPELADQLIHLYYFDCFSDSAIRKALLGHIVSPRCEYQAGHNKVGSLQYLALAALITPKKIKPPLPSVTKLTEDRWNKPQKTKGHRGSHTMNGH
UniProt P69723: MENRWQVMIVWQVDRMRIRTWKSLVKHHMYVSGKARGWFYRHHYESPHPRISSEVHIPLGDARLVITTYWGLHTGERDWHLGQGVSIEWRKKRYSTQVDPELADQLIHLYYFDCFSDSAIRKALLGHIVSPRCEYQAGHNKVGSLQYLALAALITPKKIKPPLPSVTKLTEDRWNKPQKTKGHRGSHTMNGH
UniProt Q9HC16: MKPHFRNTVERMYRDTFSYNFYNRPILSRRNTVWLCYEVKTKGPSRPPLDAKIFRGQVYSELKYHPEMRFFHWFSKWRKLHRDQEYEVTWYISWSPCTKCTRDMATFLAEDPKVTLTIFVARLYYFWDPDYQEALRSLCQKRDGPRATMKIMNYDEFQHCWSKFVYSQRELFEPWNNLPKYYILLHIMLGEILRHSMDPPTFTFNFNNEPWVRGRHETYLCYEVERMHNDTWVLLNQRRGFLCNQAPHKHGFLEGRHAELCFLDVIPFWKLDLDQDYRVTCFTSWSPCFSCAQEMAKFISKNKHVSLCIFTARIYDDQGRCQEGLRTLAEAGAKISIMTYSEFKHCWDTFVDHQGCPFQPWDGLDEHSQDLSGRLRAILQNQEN

Question: For O=c1cc(CN2CCN(c3ccc(O)cc3)CC2)nc2scc(-c3ccccc3)n12, which inhibition is on record?
Answer: inconclusive: 62.8%

Question: Which inhibition does the source give for COc1ccc(N(C(=O)c2cnccn2)C(C(=O)NC2CCCCC2)c2ccc(O)cc2)cc1 (configuration not stated) here?
Answer: inconclusive: 45.9%

Question: CS/C(=N\S(=O)(=O)c1ccc(N)cc1)NS(=O)(=O)c1cccs1 was tested. Which inhibition did it give?
Answer: inactive: 4.67%

Question: CCN1CCN(c2cc(C)c3cc(NC(=O)c4cccs4)ccc3n2)CC1 was tested. Which inhibition did it give?
Answer: inconclusive: 36%

Question: How did the inhibition turn out when Cc1ccc(C(=O)Nc2ccc(S(=O)(=O)N3CCN(C)CC3)cc2)o1 was run?
Answer: inconclusive: 50.6%

Question: Which inhibition does the source give for CC(C)NC(=O)C1CCN(C2CCN(Cc3nc(C(C)C)cs3)CC2)CC1 here?
Answer: inactive: 10.5%

Question: With COc1ccc(-c2nn3c(-c4ccc(F)cc4)nnc3s2)cc1 as the compound, how does the inhibition read?
Answer: inconclusive: 48.9%

Question: How did the inhibition turn out when CN(C)c1ccc(C(CNS(=O)(=O)c2cccc([N+](=O)[O-])c2)N2CCOCC2)cc1 (configuration not stated) was run?
Answer: inactive: -0.61%

Question: With CCOc1cc(C(=O)CCC(=O)OCC(=O)Nc2ccc(C)c(S(=O)(=O)N(C)C)c2)ccc1O as the compound, how does the inhibition read?
Answer: inconclusive: 35.4%

Question: Which inhibition does the source give for O=C(O)c1ccccc1-c1ccc(/C=c2\sc3nc4cc(Br)cnc4n3c2=O)o1 here?
Answer: inconclusive: 37.2%

Question: How did the inhibition turn out when O=C(Nc1cccc(Cl)c1)Nc1nc(-c2ccc(Cl)cc2)cs1 was run?
Answer: inconclusive: 58%

Question: For CCOC(=O)c1cnn2cc(-c3[nH]ncc3[N+](=O)[O-])cnc12, which inhibition is on record?
Answer: inconclusive: 35.7%

Question: How did the inhibition turn out when O=C(Oc1cc(-c2ccccc2)no1)c1cccc(C(F)(F)F)c1 was run?
Answer: inactive: 12%

Question: With CCc1ccc(N2CC(C(=O)N/N=C/c3ccccc3)CC2=O)cc1 (configuration not stated) as the compound, how does the inhibition read?
Answer: inconclusive: 42.5%

Question: Nc1c(C(=O)NCc2ccco2)sc2nc3c(cc12)C(=O)CCC3 was tested. Which inhibition did it give?
Answer: inconclusive: 54.1%

Question: Which inhibition does the source give for CN1CCN(C2=C(Cl)C(=O)N(Cc3ccccc3)C2=O)CC1 here?
Answer: inactive: 14.1%

Question: How did the inhibition turn out when Cc1ccccc1N1CCN(Cc2nc(Cc3ccccc3F)no2)CC1 was run?
Answer: inconclusive: 46.7%

Question: With CCc1ccccc1NC(=O)CSc1nc2c(c(-c3ccco3)c1C#N)CCCC2 as the compound, how does the inhibition read?
Answer: inconclusive: 60.6%

Question: With Cc1ccc(OCCN2C(=O)S/C(=C\c3ccc(C)o3)C2=O)cc1 as the compound, how does the inhibition read?
Answer: inconclusive: 43.1%

Question: For COc1cc(C(=O)NCC(c2ccco2)N2CCCC2)ccc1OCc1ccccc1 (configuration not stated), which inhibition is on record?
Answer: inactive: 3.67%

Question: Which inhibition does the source give for COc1ccc(Nc2ccc3c(c2)=NC2(CCCCC2)[N+]=3[O-])cc1 here?
Answer: inconclusive: 37.3%

Question: O=C1c2ccccc2-c2c1nc1c([n+]2[O-])CCCC1 was tested. Which inhibition did it give?
Answer: inconclusive: 36.7%

Question: Which inhibition does the source give for COC(=O)Nc1ccc(S(=O)(=O)NCCCCCC(=O)O)cc1 here?
Answer: inconclusive: 34%

Question: Which inhibition does the source give for CC(C)OC(=O)C(C)(C)Oc1ccc(C(=O)c2ccc(Cl)cc2)cc1 here?
Answer: inconclusive: 33.7%

Question: How did the inhibition turn out when CC(=O)c1ccc2c(c1)CCN2 was run?
Answer: inactive: 9.69%

Question: For Cc1ccc(C)n1-c1ccsc1C(=O)CC#N, which inhibition is on record?
Answer: inactive: 22.9%

Question: For COc1ccc2cc(C(=O)C3CCCN(C(=O)c4cnccn4)C3)ccc2c1 (configuration not stated), which inhibition is on record?
Answer: inconclusive: 49.9%

Question: Which inhibition does the source give for Cc1ccc(NC(=O)CN2C(=O)S/C(=C\c3cc(C)n(-c4cccc(C(=O)O)c4)c3C)C2=O)cc1 here?
Answer: inconclusive: 49.9%

Question: For COc1ccc(-c2nnn(CC(=O)N(C3CCCC3)C(C)C(=O)NC3CCCC3)n2)cc1OC (configuration not stated), which inhibition is on record?
Answer: inconclusive: 58.9%

Question: CC(=O)Nc1ccc(-c2cc(NC(C)=O)n(-c3ccccc3)n2)cc1 was tested. Which inhibition did it give?
Answer: inconclusive: 48.3%

Question: C=CCn1c(O)c(N=NC(=O)OCC)c2ccccc21 was tested. Which inhibition did it give?
Answer: inconclusive: 37.1%

Question: Which inhibition does the source give for Cc1ccc(C(=O)Nc2nnn(C)n2)cc1 here?
Answer: inconclusive: 45.7%

Question: How did the inhibition turn out when CCOc1ccc(C(C)=O)cc1CSc1nnc(-c2ccoc2C)n1N was run?
Answer: inconclusive: 49.5%

Question: CC(=O)c1cccc(NC(=O)c2cc(-c3ccc(F)cc3)on2)c1 was tested. Which inhibition did it give?
Answer: inconclusive: 59.9%

Question: How did the inhibition turn out when Cc1ccc(OCc2nnc(NC(=O)Cc3cccs3)s2)cc1 was run?
Answer: inconclusive: 44.4%

Question: For O=C(O)/C(=C\c1ccco1)NC(=O)c1cccc2ccccc12, which inhibition is on record?
Answer: inconclusive: 46.8%

Question: Which inhibition does the source give for O=[N+]([O-])c1cccn2cc(-c3ccc(Br)cc3)nc12 here?
Answer: inconclusive: 38%

Question: With N#Cc1ccc(C23CC4(C2)[C@H](CN(Cc2cccnc2)[C@@H]4c2ccccc2)C3c2ccccc2)cc1 (some centres not stated) as the compound, how does the inhibition read?
Answer: inconclusive: 56.6%

Question: For O=C(O)c1ccccc1S, which inhibition is on record?
Answer: inconclusive: 49.1%

Question: Cc1cc(=O)[nH]c(SCC(=O)NC(C)C2CC3CCC2C3)c1C#N (configuration not stated) was tested. Which inhibition did it give?
Answer: inconclusive: 38.5%

Question: With Cc1cc(C)c2ccc(C)[n+]([O-])c2c1O as the compound, how does the inhibition read?
Answer: inconclusive: 57.9%

Question: Which inhibition does the source give for Cc1ccc(C2C3=C(CC(C)(C)CC3=O)Nc3[nH]c(=S)[nH]c(=O)c32)cc1 (configuration not stated) here?
Answer: inconclusive: 50.9%

Question: With O=C1CC(c2ccccc2)c2cc(O)ccc2O1 (configuration not stated) as the compound, how does the inhibition read?
Answer: inconclusive: 35.2%

Question: Which inhibition does the source give for COC(=O)c1ccc(C)c(NC(=O)c2nn(C)c(=O)c3ccccc23)c1 here?
Answer: inactive: 0.46%

Question: Which inhibition does the source give for COCc1cc(C)nc(N/N=C/c2ccc(-c3cc(C(=O)O)ccc3Cl)o2)c1C#N here?
Answer: inconclusive: 38.4%

Question: Which inhibition does the source give for COC(=O)c1cnn(-c2nc(OC)cc(OC)n2)c1C here?
Answer: inconclusive: 37.9%

Question: CCn1ncc(CN2CCN(Cc3cccc(OC)c3)C(CCO)C2)c1C (configuration not stated) was tested. Which inhibition did it give?
Answer: inconclusive: 33.4%

Question: For Cc1cc(C(=O)NCC(=O)Nc2c(C)cccc2C)c2ccccc2n1, which inhibition is on record?
Answer: inconclusive: 50.3%

Question: For O=C(NCc1cccnc1)c1ccc(CS(=O)(=O)Cc2ccc(Cl)cc2)o1, which inhibition is on record?
Answer: inactive: 21.4%

Question: CCN(CC)C1=N/C(=C\c2ccco2)C(=O)N1c1ccccc1 was tested. Which inhibition did it give?
Answer: inconclusive: 36.6%

Question: For O=S1(=O)CCN2C(c3cccc4ccccc34)=CSC2=N1, which inhibition is on record?
Answer: inconclusive: 48.9%

Question: Which inhibition does the source give for Cn1c(SCC(=O)NC2(C#N)CCCCC2)nnc1-c1cccnc1 here?
Answer: inconclusive: 33.3%

Question: How did the inhibition turn out when O=C(Nc1ccc2c(c1)OCCO2)c1ccc(Cl)cc1 was run?
Answer: inactive: -3.98%

Question: How did the inhibition turn out when O=C(O)CCn1[nH]c(=O)ccc1=O was run?
Answer: inconclusive: 38.3%

Question: How did the inhibition turn out when O=C(O)Cn1cc(/C=N/NC(=O)c2cc3cc(Br)ccc3o2)c2ccccc21 was run?
Answer: inactive: 0.84%

Question: Which inhibition does the source give for COc1cc(C(Nc2ccc(S(=O)(=O)N3CCC(C)CC3)cc2)C(=O)NCC2CCCO2)cc(OC)c1OC (configuration not stated) here?
Answer: inconclusive: 41.3%

Question: COC(=O)[C@@]1(Cc2ccccc2)[C@H]2c3cc(C(=O)N4CCCC4)n(CCSCCO)c3C[C@H]2CN1C(=O)c1ccccc1 was tested. Which inhibition did it give?
Answer: inconclusive: 33.1%
